Article PMC5461540, “MOB1 Mediated Phospho-recognition in the Core Mammalian Hippo Pathway” (Molecular & Cellular Proteomics : MCP, 2017)

Target: T1, GST-MOB4 wild-type (human) (UniProt Q9Y3A3)
T1 sequence: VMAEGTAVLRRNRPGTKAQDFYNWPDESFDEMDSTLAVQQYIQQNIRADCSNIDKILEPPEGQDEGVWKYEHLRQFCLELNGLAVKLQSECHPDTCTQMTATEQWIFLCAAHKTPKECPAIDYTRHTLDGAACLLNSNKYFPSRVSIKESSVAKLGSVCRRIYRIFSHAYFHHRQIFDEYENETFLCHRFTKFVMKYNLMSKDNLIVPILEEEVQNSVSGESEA
Experiment: affinity purification with mass spectrometry; GST-MOB4 WT or RRR→AAA on glutathione beads, 2 mg lysate of okadaic acid-treated HeLa cells, 2 h at 4 °C; SAINTexpress scoring against glutathione resin alone; only the target purified

binding: binds
Substance: MST1 (endogenous, HeLa) (from UniProt Q13043-1 1-487)

Results are given in words; binding and its absence hold for the method and conditions named. In cells and extracts the contact can be indirect. These calls come from enrichment with a bait or labelling near it, and not all partners need be listed. Where a sequence is shown, tags or fusion partners need not be part of it.
